# According to PubChem BioAssay AID493014 (National Center for Advancing Translational Sciences (NCATS), 2011):
# Screen size: about 340,000 compounds; about 170 (0.05%) were called active. The shares of active, inactive and inconclusive entries below differ from those in the screen. Calls follow the shape of the dose curve; as a rule, active = well fitted inhibition curve with a large enough effect in the signal ratio, with a control signal flat (not every such curve was filed as active); inconclusive = small, poorly fitted or top-dose-only effect, or effect the other way, or a change in a side signal; inactive = flat fitted curve, though single readings scatter; the % refers to the signal ratio. A potency beside an inconclusive call is a rough fit, not a confirmed value.
# Experiment: qHTS Assay to Find Inhibitors of Chronic Active B-Cell Receptor Signaling;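 as to activity change, negative = inhibition: plate controls were basal doxycycline-induced cells for no effect and cells given 10 µM MG132 for full effect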
# Conditions: ABC-DLBCL IkBa-CBG/CBR reporter, luminescence ratio (green luciferase fused to IkBa over red control in TMD8 lymphoma cells), 4 h; activity change, negative = inhibition: at 46.1 µM (top of the series) unless noted
# How it was run: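 Doxycycline induced both beetle luciferases in TMD8 lymphoma cells; IKK-driven degradation limits the IkappaBalpha-fused green signal, while red luminescence normalises for cell number and nonspecific effects. Compounds tested up to 46 uM, 4 hrs.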
# Potency is read from the fitted curve at half-maximal effect.
SMILES,Potency,"activity change, negative = inhibition"
Cc1ccc(NC(=O)C(C)OC(=O)Cc2c[nH]c3ccccc23)cc1 (configuration not stated),"inconclusive: 18.4 µM [falling, single point]",
CCN(CC(=O)Nc1c(F)cccc1F)C(=O)c1ccc(C(F)(F)F)cc1,,inconclusive: -28.9%
COc1ccc(NC(=O)c2sc3nc(N4CCOCC4)c4c(c3c2N)CC(C)(C)OC4)cc1,,inconclusive: -4.59%
O=C1/C(=C/c2cccc(Br)c2)SC(=S)N1/N=C/c1cc([N+](=O)[O-])ccc1O,,inconclusive: -28.4%
OCCC1CN(C2CCN(c3ccccc3F)CC2)CCN1Cc1ccccc1 (configuration not stated),,inactive
C=C(C)COc1ccc(-c2nc(N)ncc2-c2ccc(OC)c(OC)c2)c(O)c1,"inconclusive: 4.47 µM [falling, full curve]",
CC(NC(=O)CC1Nc2ccccc2NC1=O)c1ccccc1 (configuration not stated),"inconclusive: 29.1 µM [falling, single point]",
C=CC[C@@H](CC(=O)NCCO)C(=O)N[C@@H](COC(=O)[C@@H](CC=C)CC(=O)OC(C)(C)C)Cc1c[nH]c2ccccc12,,inconclusive: -0.423%
CN(C(=S)NC(=O)C12CC3CC(CC(C3)C1)C2)c1ccc(O)cc1,,inconclusive: -5.39%
O=C(O)c1cccnc1SCc1cn2cc(Cl)ccc2n1,,inconclusive: -1.97%
Cc1ccc(S(=O)(=O)CC(=O)c2ccc([N+](=O)[O-])cc2)cc1,,inconclusive: 13.2%
Oc1ccc(-c2onc3ccc(Cl)cc23)cc1,"inconclusive: 0.0291 µM [rising, full curve, poor fit]",
O=C(O)c1cccc(NCc2ccncc2)c1,,inconclusive: 12.3%
O=C(c1cc2cc(Cl)ccc2[nH]1)N1CCN(C(=O)c2ccco2)CC1,,inconclusive: -3.03%
COCCCNC(=O)/C(C#N)=C/c1c(N2CCN(c3ccccc3)CC2)nc2ccccn2c1=O,,inactive
Cc1nnnn1/C(=C\c1ccccc1)C(=O)OCC(=O)Nc1ccc(Cl)cc1F,,inconclusive: -13.3%
CCSc1nnc2c(n1)[nH]c1c(C)cccc12,,inconclusive: 8.75%
O=C(Nc1ccccc1)c1cc([N+](=O)[O-])ccc1NC1CCCCC1,"inconclusive: 29.1 µM [rising, single point]",
Cc1ccc(-c2cc(-c3ccc(F)cc3)nc(N)c2C#N)o1,,inconclusive: 18.3%
Cc1ccc(C2C(=O)N(C3CCCC3)CC(=O)N2C2CCCCC2)cc1 (configuration not stated),,inconclusive: -25.6%
Cc1ccc(S(=O)(=O)N2CCN(C(=O)COC(=O)CCOc3ccc(C(C)(C)C)cc3)CC2)cc1,,inconclusive: -3.31%
COc1ccccc1NC(=O)CN1CCN(C2c3ccccc3-c3ccccc32)CC1,,inactive
Cc1cccc(N2CCN(Cc3ccoc3)CC2)c1C,,inactive
CCC(=O)c1ccc(OCC(=O)Nc2ccccc2N2CCCCC2)cc1,,inconclusive: -4.49%
CCOC(=O)[C@@H]1[C@H]2COc3ccc(Br)cc3[C@@H]2N2C(=O)N(c3ccc(C(F)(F)F)cc3)C(=O)[C@@]12C,"inconclusive: 8.91 µM [falling, partial curve, poor fit]",
COc1ccccc1CNC(=O)CN1C(=O)NC2(CCCC2)C1=O,"inconclusive: 32.6 µM [falling, partial curve, poor fit]",

SMILES,Potency,"activity change, negative = inhibition"
O=C(CN1CCc2cc3c(cc2C1)OCCCO3)Nc1ccccc1,"inconclusive: 22.4 µM [falling, partial curve]",
O=C(N[C@@H](Cc1ccccc1)C(=O)CCl)OCc1ccccc1,,inconclusive: 18.1%
CCOC(CNC(=O)c1cccn2c(=O)c3c(C)c(C)sc3nc12)OCC,,inconclusive: -13%
O=C(CN1CCOCC1)N/N=C/c1ccco1,,inactive
COc1ccc(-c2nc3scc(CCNS(=O)(=O)c4ccc(C)cc4)n3n2)cc1,,inactive
Cc1ccc(S(=O)(=O)CCSc2nc(C)cc(C(F)(F)F)c2C#N)cc1,"inconclusive: 18.4 µM [falling, single point]",
O=C(Nc1cc(C(=O)N2CCN(c3ccccc3O)CC2)ccc1Cl)c1cccs1,,inconclusive: 1.03%
Cc1[nH]nc2c1C(c1ccc(OC(=O)c3ccco3)cc1)C(C#N)=C(N)O2 (configuration not stated),,inconclusive: -11.4%
Cc1cc2ccccc2c(=O)n1CC(=O)NCC1COc2ccccc2O1 (configuration not stated),,inactive
Nc1nc(-c2ccc(C(=O)O)cc2)cs1,,inactive
O=C(c1cccc(S(=O)(=O)N2CCc3ccccc32)c1)N1CCN(c2ccccc2)CC1,,inconclusive: 3.28%
O=C(NOCc1ccccc1)c1ccc([N+](=O)[O-])cc1,"inconclusive: 23.1 µM [falling, single point]",
O=C(N/N=C/c1ccccn1)c1ccc(N/N=C/c2ccccn2)cc1,"inconclusive: 15.8 µM [falling, partial curve, poor fit]",
O=c1c2cc(NC(=S)NCc3cccnc3)ccc2nc2n1CCCCC2,,inactive
O=C1CSC(c2cccc([N+](=O)[O-])c2)N1C1CC2CCC1C2 (configuration not stated),,inconclusive: 9.96%
CC(NC(=O)CCl)c1ccc(Cl)c(Cl)c1 (configuration not stated),"inconclusive: 25.9 µM [rising, single point]",
Cc1cc(Nc2ccccc2)nc(NCc2ccccc2)n1,,inconclusive: -15.9%
CC1CCCC(C)N1C(=O)/C=C/c1ccc(S(=O)(=O)N2CCOCC2)cc1 (configuration not stated),,inconclusive: 1.26%
COCCN1CCCC(CNCc2cn(C)nc2-c2ccc(Oc3ccccc3)cc2)C1 (configuration not stated),"inconclusive: 20 µM [falling, single point]",
Cc1cc(=O)[nH]c(SCC(=O)Nc2ccc(S(=O)(=O)N3CCCCC3)cc2)n1,"inconclusive: 10.3 µM [rising, partial curve]",
CCN(CC)CC(C)CNC(=O)C1(O)c2ccccc2NC(=O)N1c1ccc(Cl)c(Cl)c1 (configuration not stated),"inconclusive: 25.1 µM [falling, single point]",
Cc1ccc(C(=O)Nc2nnc(-c3ccncc3)s2)o1,"inconclusive: 14.6 µM [falling, partial curve, poor fit]",
COc1ccc2nc(SCC(=O)NC3CCCC3)c(C)cc2c1,,inactive
CCCCOC(=O)c1sc2nc(N3CCOCC3)c3c(c2c1N)CC(C)(C)OC3,"inconclusive: 1 µM [falling, partial curve, poor fit]",
CC(C)CC(=O)Nc1cccc(-c2nc3ccccc3[nH]2)c1,,inconclusive: 0.234%
O=C(/C=C/c1ccccc1)N1CCN(CCN2C(=O)c3cccc4cccc(c34)C2=O)CC1,,inconclusive: -0.87%

# Of the compounds above, four have a thiophene ring, fused or not:
SMILES,Potency,"activity change, negative = inhibition"
COc1ccc(NC(=O)c2sc3nc(N4CCOCC4)c4c(c3c2N)CC(C)(C)OC4)cc1,,inconclusive: -4.59%
CCOC(CNC(=O)c1cccn2c(=O)c3c(C)c(C)sc3nc12)OCC,,inconclusive: -13%
O=C(Nc1cc(C(=O)N2CCN(c3ccccc3O)CC2)ccc1Cl)c1cccs1,,inconclusive: 1.03%
CCCCOC(=O)c1sc2nc(N3CCOCC3)c3c(c2c1N)CC(C)(C)OC3,"inconclusive: 1 µM [falling, partial curve, poor fit]",

# More results.

SMILES,Potency,"activity change, negative = inhibition"
CCCCc1ccc(NC(=S)NCCc2ccc(F)cc2)cc1,"inconclusive: 35.5 µM [falling, single point]",
Cc1ccccc1C(=O)NC1CCN(CC(=O)NCc2ccccc2)CC1,,inconclusive: -4.67%
Cc1noc(NC(=O)c2cccc(C(F)(F)F)c2)c1Cl,"inconclusive: 20 µM [falling, single point]",
O=S(=O)(c1ccc(Cl)cc1)N1CCN(Cc2ccc(O)c3ncccc23)CC1,,inactive
O=C(NNC(=O)C1COc2ccccc2O1)c1cccc([N+](=O)[O-])c1 (configuration not stated),"inconclusive: 20 µM [falling, single point]",
CCN(CC)CCCNC(=O)CSc1nc(-c2ccc(F)cc2)cc(C(F)(F)F)n1,,inactive
N/C(=N\OC(=O)COc1ccc(Br)cc1Cl)c1ccccn1,,inconclusive: -4.83%
Cn1c(N/N=C\c2cccc(O)c2)cc(=O)n(C)c1=O,,inconclusive: -0.547%
Cc1cc(C)n2nc(C(=O)N/N=C/c3ccc(O)cc3)nc2n1,,inconclusive: -15.8%
CC(Nc1ccc(N2CCOCC2)cc1)C(=O)N1c2ccccc2CC1C (configuration not stated),,inconclusive: 0.531%
CC(C)c1ccc(/C=C/C(=O)Nc2ccc(CN3CCOCC3)cc2)cc1,"inconclusive: 28.2 µM [falling, single point]",
COCc1cc(CN2CCCC(C(=O)Nc3ccc(-c4ccco4)cc3)C2)ccc1OC (configuration not stated),,inconclusive: -15%
CCOC(=O)C1CCN(CC(O)COCc2ccc(Cl)cc2)CC1 (configuration not stated),,inconclusive: 6.05%
CCOC(=O)CN(C(=O)CSc1nnc(C)n1-c1ccccc1)c1cccc([N+](=O)[O-])c1,,inconclusive: 21.4%
CC1=C/C(=N\NC(=S)NCc2ccccc2)CC1,"inconclusive: 5.01 µM [falling, single point]",
O=C1CN(C(=O)CNCc2ccccc2Cl)c2ccccc2N1,"inconclusive: 35.5 µM [falling, single point]",
O=C(Nc1ccncc1)C1CCN(S(=O)(=O)c2ccc(Cl)c(C(F)(F)F)c2)CC1,,inactive
CCOc1ccc(C(c2nnnn2C(C)(C)C)N2CCN(C(=O)c3ccco3)CC2)cc1 (configuration not stated),,inconclusive: -0.187%
O=C(CSc1nc(=O)n2ccccc2n1)N1N=C(c2cccs2)CC1c1ccc(F)cc1 (configuration not stated),,inactive
COc1cc(/C=N/Nc2cccc3cccnc23)cc(OC)c1O,"inconclusive: 3.55 µM [falling, full curve]",
CC(C)(C)OC(=O)CN1c2cccc3cccc(c23)S1(=O)=O,,inconclusive: 2.25%
C=C(C)c1cccc(C(C)(C)NC(=O)N(C)C2CCN(C)CC2)c1,,inconclusive: -28.5%
Brc1ccc(-c2nc3ncccn3c2Nc2ccc3c(c2)OCCO3)o1,"inconclusive: 14.6 µM [falling, single point]",
CC(COc1ccc(/C=C/c2ccccc2)cc1)[N+](C)(C)C (configuration not stated),"inconclusive: 9.2 µM [falling, partial curve, poor fit]",
COc1ccc(C2CC(c3cccs3)=NN2C(=O)CSc2nncn2C)cc1OC (configuration not stated),,inconclusive: 13%

# Reformatted with tabs: part of the list above.
SMILES	Potency	activity change, negative = inhibition
O=C(CSc1nc(=O)n2ccccc2n1)N1N=C(c2cccs2)CC1c1ccc(F)cc1 (configuration not stated)		inactive
COc1cc(/C=N/Nc2cccc3cccnc23)cc(OC)c1O	inconclusive: 3.55 µM [falling, full curve]	
